# PubChem BioAssay AID652272, Drosophila RNAi Screening Center | 2013
# Purpose: 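Finding fly genes that regulate Hedgehog signal transduction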 (primary screen)
# System: Drosophila clone 8 (Cl8) cells
# Reagents: long dsRNA against Drosophila genes
# Detection: 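Plate reader light from a firefly reporter under a ptc promoter fragment that responds to Hedgehog, with Renilla light as transfection reference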
# Reading the numbers: firefly Hh reporter signal: higher = more ptc reporter light; Renilla reference signal: higher = more Renilla control light
# Call rule: 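Hit when the z-score averaged over two replicates is under -2 or over +3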
# Calls: active = hit: reporter lowered or raised; inactive = not a hit
# The deposit covers about 21,000 reagents; below is a random part of those with a known target gene and a result. In the full data, 503 (2.4%) were called active. 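Raw plate light values, not normalised; calls rest on replicate z-scores that were not deposited; hits include reporter decreases as well as increases.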 A plus sign joins genes that one reagent is predicted to hit. Not given: the amount of reagent, the time to read-out.
The first 4 records, to show the layout:
Target gene,dsRNA,"firefly Hh reporter signal, replicate 1","firefly Hh reporter signal, replicate 2","firefly Hh reporter signal, replicate 3","Renilla reference signal, replicate 1","Renilla reference signal, replicate 2",Call
Zaf1,DRSC16121,73655,1.12e5,,2192,6020,inactive
Ppt1,DRSC17806,82163,2.15e5,,2182,7281,inactive
CG42531,DRSC05318,1.40e5,2.79e5,,4067,12458,inactive
Klp68D,DRSC11206,72773,44848,,3146,2220,inactive

The list itself, repeating the preview:
Target gene,dsRNA,"firefly Hh reporter signal, replicate 1","firefly Hh reporter signal, replicate 2","firefly Hh reporter signal, replicate 3","Renilla reference signal, replicate 1","Renilla reference signal, replicate 2",Call
Zaf1,DRSC16121,73655,1.12e5,,2192,6020,inactive
Ppt1,DRSC17806,82163,2.15e5,,2182,7281,inactive
CG42531,DRSC05318,1.40e5,2.79e5,,4067,12458,inactive
Klp68D,DRSC11206,72773,44848,,3146,2220,inactive
RpL18A,DRSC07538,21368,17079,,1258,2198,active
DCTN2-p50,DRSC07132,98317,62535,,3415,2019,inactive
CG16775,DRSC10225,1.64e5,,,5552,5280,inactive
CG14262,DRSC14757,88389,97900,,2888,3005,inactive
CG9747,DRSC16554,77392,5.63e5,95366,1836,3591,inactive
zetaCOP,DRSC11412,63691,,,1282,10962,active
CG10702,DRSC02097,52001,74122,,2273,2956,inactive
Amacr,DRSC03198,1.25e5,89030,,4466,3297,inactive
ru,DRSC08258,64504,37748,,2610,3098,inactive
Snr1,DRSC12369,1.09e5,95789,,4835,4186,inactive
Irbp,DRSC17007,73318,80041,,2704,2132,inactive
PIP4K,DRSC17213,98044,2.53e5,,4087,9650,inactive
loqs,DRSC02997,72264,52772,,2370,5620,inactive
CG10958,DRSC17768,1.11e5,98023,,2678,2530,inactive
CG14102,DRSC10103,55209,74417,,2201,2157,inactive
CG14877,DRSC15001,84288,98592,,2653,2835,inactive
CG5674,DRSC02874,47505,23746,,1904,2989,active
Sol1,DRSC15263,58013,98096,,1916,2778,inactive
Sol1,DRSC15271,94448,1.81e5,,3223,4588,inactive
Sol1,DRSC15681,1.02e5,1.49e5,,4011,3931,inactive
CaMKI,DRSC17162,1.11e5,83206,,2672,2634,inactive
CG7886,DRSC16333,73632,74282,,2646,2064,inactive
Gadd45,DRSC06033,99836,45920,,2822,3844,inactive
GLaz,DRSC07431,67436,38251,,1602,3385,inactive
Tep4,DRSC03453,70037,64352,,1606,4345,inactive
Lcp4,DRSC07458,1.05e5,62646,,2711,4935,inactive
CG17883,DRSC07838,57509,58744,,2364,3517,inactive
Osi16,DRSC12135,68275,1.06e5,,2832,3221,inactive
Gr57a,DRSC06401,90873,62048,,2997,4227,inactive
CG14109,DRSC10112,50752,41738,60331,3888,3962,inactive
hpRNA:CR32207,DRSC09616,3.09e5,,,6539,,inactive
Taf6,DRSC11299,67467,48147,,2498,1652,inactive
Naxe,DRSC18251,67253,1.33e5,,1467,5954,inactive
CG7991,DRSC08609,76517,46102,,2422,3196,inactive
Stam,DRSC03444,67845,50605,,3130,2416,inactive
Gnptab,DRSC07057,86483,65148,,2059,4461,inactive
GCS1,DRSC19744,1.19e5,60077,,2881,1561,inactive
CG7080,DRSC16193,94912,66769,,4074,2807,inactive
CG13928,DRSC08397,63818,30219,,2530,2880,inactive
Apc,DRSC14114,81844,1.56e5,,3373,5170,inactive
CG11726,DRSC09858,56889,53578,48102,5781,3028,inactive
CG7328,DRSC10812,61943,99117,,1330,2916,inactive
CG43063,DRSC12948,44748,1.32e5,,9383,2699,inactive
CG33770,DRSC11717,93721,98155,,1809,1577,inactive
Rh4 + sina,DRSC11396,1.21e5,55162,,4845,2512,inactive
Slik,DRSC04471,66892,36291,,3325,1609,inactive
dpr7,DRSC17109,4.22e5,1.90e5,,19977,4040,inactive
Amt,DRSC16055,84080,1.00e5,,3360,2976,inactive
CG34286,DRSC13372,53331,3.31e5,,11492,5257,inactive
Osi4,DRSC12134,80593,1.12e5,,3281,2908,inactive
Atac3,DRSC08579,90711,34761,,3409,2631,inactive
Ada2b,DRSC16531,1.07e5,1.59e5,,4465,4343,inactive
Dll,DRSC04610,1.02e5,43816,,2161,3655,inactive
CG12159,DRSC06114,82445,35648,,2065,3665,inactive
Bulli,DRSC10974,31344,66512,,3547,4121,inactive
CG5614,DRSC15845,1.72e5,7.53e5,1.66e5,5184,5191,inactive
CG5217,DRSC15740,4.09e5,69884,,23334,1496,inactive
Cyp4ac1,DRSC03302,1.36e5,1.02e5,,5549,3960,inactive
CG2790,DRSC04045,1.12e5,83176,,3632,3268,inactive
CG12374,DRSC06143,72584,51241,,1899,3841,inactive
Pex2,DRSC10770,85136,98451,,4084,3408,inactive
epsilonCOP,DRSC02003,95393,1.14e5,,3817,3537,inactive
CG3308,DRSC15474,1.02e5,1.14e5,,4387,4508,inactive
Cyp6a13,DRSC07375,53750,30292,,2464,1602,inactive
CG6847,DRSC19213,6.00e5,2.29e5,,34246,5485,inactive
CG6847,DRSC20009,79226,1.38e5,,3121,6284,inactive
Mlf,DRSC07472,37383,20288,,1100,1901,inactive
CG10588,DRSC11628,1.17e5,1.17e5,,3954,3307,inactive
CG8172,DRSC07089,1.87e5,83196,,4760,6566,inactive
